Source: publication PMC10470473
These are yes or no findings as the source states them, for the method shown. In cells and extracts the contact can be indirect. Some results given as binding are weak or reduced against the parent protein; the word gives no strength. For some of these results: Tags and fused reporters may be left off the sequences shown.

Sequences of proteins named here, by UniProt entry; tags and fusion partners are left off.
UniProt Q92769: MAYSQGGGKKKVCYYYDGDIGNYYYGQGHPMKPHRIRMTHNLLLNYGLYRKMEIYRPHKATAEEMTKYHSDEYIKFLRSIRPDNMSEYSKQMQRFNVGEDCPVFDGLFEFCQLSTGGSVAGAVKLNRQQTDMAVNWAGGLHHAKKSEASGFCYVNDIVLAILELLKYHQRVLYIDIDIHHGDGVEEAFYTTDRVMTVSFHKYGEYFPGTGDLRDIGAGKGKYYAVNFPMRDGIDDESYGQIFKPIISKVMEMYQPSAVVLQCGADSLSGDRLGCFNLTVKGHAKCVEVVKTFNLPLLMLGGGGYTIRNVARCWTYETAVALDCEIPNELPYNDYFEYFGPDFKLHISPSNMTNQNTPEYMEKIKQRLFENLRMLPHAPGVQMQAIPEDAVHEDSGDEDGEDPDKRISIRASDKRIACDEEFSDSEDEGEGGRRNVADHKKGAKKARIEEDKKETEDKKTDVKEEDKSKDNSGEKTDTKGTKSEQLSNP
UniProt Q13547: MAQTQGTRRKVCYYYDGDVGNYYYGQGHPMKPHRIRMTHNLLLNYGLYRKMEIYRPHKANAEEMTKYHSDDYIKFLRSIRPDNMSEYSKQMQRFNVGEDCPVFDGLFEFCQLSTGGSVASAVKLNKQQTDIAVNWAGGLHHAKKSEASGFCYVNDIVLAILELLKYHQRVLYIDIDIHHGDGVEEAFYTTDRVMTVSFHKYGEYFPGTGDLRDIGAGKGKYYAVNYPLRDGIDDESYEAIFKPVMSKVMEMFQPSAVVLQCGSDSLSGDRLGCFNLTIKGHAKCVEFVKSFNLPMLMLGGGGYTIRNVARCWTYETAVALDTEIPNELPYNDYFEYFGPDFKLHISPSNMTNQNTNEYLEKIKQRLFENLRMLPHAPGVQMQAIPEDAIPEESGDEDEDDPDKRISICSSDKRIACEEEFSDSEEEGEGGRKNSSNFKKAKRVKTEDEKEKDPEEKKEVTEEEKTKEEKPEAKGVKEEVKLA

Legend:
Test in all cases: co-IP; HEK293 cells cotransfected with V5-EHMT1 WT or mutants (doxycycline for 3 days) and FLAG-LSD1; Triton lysis buffer, brief sonication; anti-V5- or anti-FLAG-conjugated beads; immunoblotting
V5-tagged EHMT1-K451R = V5-tagged EHMT1-K451R (UniProt Q9H9B1)
[1] = target: V5-tagged EHMT1-K450/451R (UniProt Q9H9B1)
[2] = target: V5-tagged EHMT1 wild type (euchromatin histone methyltransferase 1) (UniProt Q9H9B1)
V5-tagged EHMT1-K450R = V5-tagged EHMT1-K450R (UniProt Q9H9B1)
[3] = target: T1, V5-tagged EHMT1 wild type (euchromatin histone methyltransferase 1), Q9H9B1; conditions: remark: other sources report otherwise
T1 chain: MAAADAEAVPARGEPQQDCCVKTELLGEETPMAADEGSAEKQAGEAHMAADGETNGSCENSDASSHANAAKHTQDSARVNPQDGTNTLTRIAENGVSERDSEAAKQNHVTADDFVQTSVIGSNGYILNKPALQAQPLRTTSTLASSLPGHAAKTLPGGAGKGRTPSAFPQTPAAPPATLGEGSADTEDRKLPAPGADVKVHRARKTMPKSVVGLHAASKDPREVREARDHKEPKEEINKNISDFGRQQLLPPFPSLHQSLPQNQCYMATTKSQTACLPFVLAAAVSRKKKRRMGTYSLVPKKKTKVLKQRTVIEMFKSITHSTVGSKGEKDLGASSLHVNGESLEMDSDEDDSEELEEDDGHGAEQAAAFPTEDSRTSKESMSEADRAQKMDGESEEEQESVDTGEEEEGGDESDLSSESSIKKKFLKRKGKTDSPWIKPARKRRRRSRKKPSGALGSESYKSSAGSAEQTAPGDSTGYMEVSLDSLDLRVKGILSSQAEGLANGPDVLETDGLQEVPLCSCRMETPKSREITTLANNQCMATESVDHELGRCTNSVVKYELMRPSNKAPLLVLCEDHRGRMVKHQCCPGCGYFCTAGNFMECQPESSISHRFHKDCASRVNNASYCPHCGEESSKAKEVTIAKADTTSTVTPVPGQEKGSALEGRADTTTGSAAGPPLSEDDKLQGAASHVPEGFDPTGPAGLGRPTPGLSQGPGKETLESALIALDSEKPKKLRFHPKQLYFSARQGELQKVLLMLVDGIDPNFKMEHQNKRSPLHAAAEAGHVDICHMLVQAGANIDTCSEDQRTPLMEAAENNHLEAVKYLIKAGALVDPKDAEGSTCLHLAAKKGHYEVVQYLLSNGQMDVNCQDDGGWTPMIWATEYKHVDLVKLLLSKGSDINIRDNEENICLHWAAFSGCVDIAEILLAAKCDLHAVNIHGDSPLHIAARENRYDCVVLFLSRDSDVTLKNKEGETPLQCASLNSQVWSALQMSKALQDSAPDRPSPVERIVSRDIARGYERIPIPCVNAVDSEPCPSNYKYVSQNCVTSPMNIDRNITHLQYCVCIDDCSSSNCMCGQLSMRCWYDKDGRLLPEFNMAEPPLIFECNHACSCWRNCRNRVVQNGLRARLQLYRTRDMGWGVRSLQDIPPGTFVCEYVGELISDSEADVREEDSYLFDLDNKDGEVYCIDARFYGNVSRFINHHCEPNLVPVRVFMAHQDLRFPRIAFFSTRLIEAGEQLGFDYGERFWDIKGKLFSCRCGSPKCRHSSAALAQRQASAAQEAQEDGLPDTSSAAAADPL

Measured: binding

HDAC2 (from UniProt Q92769 1-488)
not listed: [3]
binds: all other assays above

EHMT2 (euchromatin histone methyltransferase 2) (from UniProt Q96KQ7 1-1210)
binds: V5-tagged EHMT1-K451R | [1] | V5-tagged EHMT1-K450R

HDAC1 (from UniProt Q13547 1-482)
not listed: [3]
binds: all other assays above

B1: EHMT2 (euchromatin histone methyltransferase 2), Q96KQ7 1-1210 (protein)
chain: MAAAAGAAAAAAAEGEAPAEMGALLLEKETRGATERVHGSLGDTPRSEETLPKATPDSLEPAGPSSPASVTVTVGDEGADTPVGATPLIGDESENLEGDGDLRGGRILLGHATKSFPSSPSKGGSCPSRAKMSMTGAGKSPPSVQSLAMRLLSMPGAQGAAAAGSEPPPATTSPEGQPKVHRARKTMSKPGNGQPPVPEKRPPEIQHFRMSDDVHSLGKVTSDLAKRRKLNSGGGLSEELGSARRSGEVTLTKGDPGSLEEWETVVGDDFSLYYDSYSVDERVDSDSKSEVEALTEQLSEEEEEEEEEEEEEEEEEEEEEEEEDEESGNQSDRSGSSGRRKAKKKWRKDSPWVKPSRKRRKREPPRAKEPRGVNGVGSSGPSEYMEVPLGSLELPSEGTLSPNHAGVSNDTSSLETERGFEELPLCSCRMEAPKIDRISERAGHKCMATESVDGELSGCNAAILKRETMRPSSRVALMVLCETHRARMVKHHCCPGCGYFCTAGTFLECHPDFRVAHRFHKACVSQLNGMVFCPHCGEDASEAQEVTIPRGDGVTPPAGTAAPAPPPLSQDVPGRADTSQPSARMRGHGEPRRPPCDPLADTIDSSGPSLTLPNGGCLSAVGLPLGPGREALEKALVIQESERRKKLRFHPRQLYLSVKQGELQKVILMLLDNLDPNFQSDQQSKRTPLHAAAQKGSVEICHVLLQAGANINAVDKQQRTPLMEAVVNNHLEVARYMVQRGGCVYSKEEDGSTCLHHAAKIGNLEMVSLLLSTGQVDVNAQDSGGWTPIIWAAEHKHIEVIRMLLTRGADVTLTDNEENICLHWASFTGSAAIAEVLLNARCDLHAVNYHGDTPLHIAARESYHDCVLLFLSRGANPELRNKEGDTAWDLTPERSDVWFALQLNRKLRLGVGNRAIRTEKIICRDVARGYENVPIPCVNGVDGEPCPEDYKYISENCETSTMNIDRNITHLQHCTCVDDCSSSNCLCGQLSIRCWYDKDGRLLQEFNKIEPPLIFECNQACSCWRNCKNRVVQSGIKVRLQLYRTAKMGWGVRALQTIPQGTFICEYVGELISDAEADVREDDSYLFDLDNKDGEVYCIDARYYGNISRFINHLCDPNIIPVRVFMLHQDLRFPRIAFFSSRDIRTGEELGFDYGDRFWDIKSKYFTCQCGSEKCKHSAEAIALEQSRLARLDPHPELLPELGSLPPVNT
binds: [3]

B2: REST (protein, UniProt Q13127 1-1097)
chain: MATQVMGQSSGGGGLFTSSGNIGMALPNDMYDLHDLSKAELAAPQLIMLANVALTGEVNGSCCDYLVGEERQMAELMPVGDNNFSDSEEGEGLEESADIKGEPHGLENMELRSLELSVVEPQPVFEASGAPDIYSSNKDLPPETPGAEDKGKSSKTKPFRCKPCQYEAESEEQFVHHIRVHSAKKFFVEESAEKQAKARESGSSTAEEGDFSKGPIRCDRCGYNTNRYDHYTAHLKHHTRAGDNERVYKCIICTYTTVSEYHWRKHLRNHFPRKVYTCGKCNYFSDRKNNYVQHVRTHTGERPYKCELCPYSSSQKTHLTRHMRTHSGEKPFKCDQCSYVASNQHEVTRHARQVHNGPKPLNCPHCDYKTADRSNFKKHVELHVNPRQFNCPVCDYAASKKCNLQYHFKSKHPTCPNKTMDVSKVKLKKTKKREADLPDNITNEKTEIEQTKIKGDVAGKKNEKSVKAEKRDVSKEKKPSNNVSVIQVTTRTRKSVTEVKEMDVHTGSNSEKFSKTKKSKRKLEVDSHSLHGPVNDEESSTKKKKKVESKSKNNSQEVPKGDSKVEENKKQNTCMKKSTKKKTLKNKSSKKSSKPPQKEPVEKGSAQMDPPQMGPAPTEAVQKGPVQVEPPPPMEHAQMEGAQIRPAPDEPVQMEVVQEGPAQKELLPPVEPAQMVGAQIVLAHMELPPPMETAQTEVAQMGPAPMEPAQMEVAQVESAPMQVVQKEPVQMELSPPMEVVQKEPVQIELSPPMEVVQKEPVKIELSPPIEVVQKEPVQMELSPPMGVVQKEPAQREPPPPREPPLHMEPISKKPPLRKDKKEKSNMQSERARKEQVLIEVGLVPVKDSWLLKESVSTEDLSPPSPPLPKENLREEASGDQKLLNTGEGNKEAPLQKVGAEEADESLPGLAANINESTHISSSGQNLNTPEGETLNGKHQTDSIVCEMKMDTDQNTRENLTGINSTVEEPVSPMLPPSAVEEREAVSKTALASPPATMAANESQEIDEDEGIHSHEGSDLSDNMSEGSDDSGLHGARPVPQESSRKNAKEALAVKAAKGDFVCIFCDRSFRKGKDYSKHLNRHLVNVYYLEEAAQGQE
not listed: [3]
binds: all other assays above
